Hit rate of the full screen: of about 52,000 sequences, about 210 (0.4%) were called active.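 How the source made its calls: active means gene whose silencing raises cell survival under the drug, median off-target-corrected z-score across its silencing RNAs 2 or more; inactive means the rest.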 Some of the results follow.
Assay: Resistance to Poly (ADP-Ribose) Polymerase inhibitor: Gene Identification via Genome-wide siRNA Screen
Settings: mouse BRCA2 R2336H ES cells, olaparib, CellTiter-Glo viability; stronger effect = higher value
Method in brief: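 Genome-wide siRNA screen (3 siRNAs/gene, 20 nM) in mouse ES cells carrying hypomorphic BRCA2 R2336H; olaparib 500 nM added 48 h post-transfection, CellTiter-Glo viability 72 h later. Normalized to plate-median negative control; MAD z-scores, gene median, seed-adjusted.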

| Sequence | z-score |
| --- | --- |
| GGUUCUUUGUAUUGAUCAATT against Adamts20 | inactive: -0.117 |
| CCUGCCAAUCUGUCUAAGUTT against Ccdc5 | inactive: 0.0628 |
| GCCAAUUGAAGGAUAUCUUTT against Ocm | inactive: -1.05 |
| GGAAGAAAGUGAAACUUGATT against 1700025B16Rik | inactive: -1.31 |
| GCAAAUGGUGCAUACGUGATT against Slc35d1 | inactive: 0.00511 |
| CCUACCUCUUGUUGGAAAATT against Fbxo15 | inactive: -1.09 |
| CGAAAGAGAGAGUGGGUGATT against Cdh3 | inactive: 0.501 |
| GCUCAGCAUGCUGAUUCCATT against LOC574428 | inactive: -1.43 |
| GGCAAGCAUAAAGAUGAAUTT against Sema6d | inactive: -0.519 |
| GCUGAAUGCCAUAAACAGATT against Srms | inactive: 1.41 |
| GCUCGUCAGAGACAAGCAUTT against Ptcd2 | inactive: 0.227 |
| GGGUCUUGAAUACAGAGAGTT against Qscn6 | inactive: -0.209 |
| GGAAGAAUUCUUGAAGAUGTT against Cetn4 | inactive: 0.722 |
| GCCCAAGGAUUGGCAAAAGTT against Foxj1 | inactive: -0.773 |
| GCCAUGAUACCUUGUUAUUTT against 4833424O15Rik | inactive: 0.279 |
| GGUGACCACUUUUAUCUGATT against Thedc1 | inactive: 0.599 |
| GCAGUUGGUAUUGUUAACUTT against Maml1 | inactive: 0.136 |
| CCAUUGUUUGUAAUCUAGATT against Rbed1 | inactive: -0.358 |
| GGUGUGGAGUAUGUAUGCUTT against Aplp1 | inactive: 0.665 |
| GGAAUUUUAUGCCAAGAAUTT against Hip1r | inactive: 1.09 |
| GGUGUUUACUCCGUACCCATT against Tbrg4 | inactive: -0.931 |
| GGAUCAAUAAGGAAUCUCUTT against Ugp2 | inactive: 0.282 |
| GGAGAAAGCUACUUAUAAGTT against Fbxo17 | inactive: 0.11 |

| Sequence | z-score |
| --- | --- |
| GGUUUUGAGCAAAAUUCUATT against Nrd1 | inactive: -0.299 |
| GGGCAAAAACUGUCUGACUTT against Rps3a | inactive: -3.46 |
| CGACACACCAGAACGAAUCTT against Cklfsf8 | inactive: -0.275 |
| CCGUUGGAUAAUGUCACAUTT against Stx4a | inactive: 2.05 |
| GGAUGAAGACCCAUAUGUGTT against Ap1b1 | inactive: -1.07 |
| GCUAAAGUUCCAAUAUGGGTT against D5Wsu46e | inactive: -0.828 |
| CCAUCAUGAACACCAAGCUTT against Olfr464 | inactive: -1.01 |
| GGUGAGGAGGUACCAGGUATT against Nthl1 | inactive: 0.449 |
| CGUCAUUGGCCUUCAAAUGTT against Tagln | inactive: -1.41 |
| GCUUUUGUUACAUAAUGCUTT against Als2cr4 | inactive: 0.484 |
| GGCCUAUGAAGUACUAUCUTT against Dnajb10 | inactive: -0.701 |
| CCCUCCAGUAAAUUUUAAGTT against Sox6 | inactive: 1.09 |
| GGAGUUGUAGUGAGGGUCATT against A430096B05Rik | inactive: 0.327 |
| GCUUAUUGUCAUGAUCAUATT against Hsd17b7 | inactive: -1.41 |
| GGCGUGUUUUAUGUAUAACTT against Acsl3 | inactive: 0.743 |
| GGGUUGUUCGGAGGAAACATT against Napb | inactive: -0.337 |
| GCUGACUUCAGUUGUGGCATT against Baz2a | inactive: 0.0438 |
| GGGAAAAACUCUGUGUGUATT against Coasy | inactive: -1.1 |
| GGGACUGUUUCUGUUAAUUTT against D9Ertd280e | inactive: -1.01 |
| CCUUCAAAUGAACUCUACUTT against Fcer1a | inactive: -1.58 |
| CCUUUCAAUGACUACGAUUTT against Rnase9 | inactive: 0.0488 |
| GCUGACCUCAAUGACUACATT against Ccl9 | inactive: -1.11 |
| GCAUCAUACUGACCUGAGATT against Hemt1 | inactive: -1.09 |

| Sequence | z-score |
| --- | --- |
| GGCUGACAGUGGAGUCUAUTT against Ceacam9 | inactive: -3.14 |
| GGUUCAAGCAGGUCAAAGUTT against Acbd6 | inactive: -0.134 |
| GCCGGAGUGCACAAUCAAATT against Rarres2 | inactive: 0.384 |
| GGAGAAUCUGGUCUGGGUATT against 4-Sep | inactive: -1.34 |
| GGAACGACUACAAUGAACCTT against Ppil5 | inactive: 0.255 |
| GGACAUGUCUCAGGAAAACTT against Btc | inactive: -2.13 |
| GCUACUAGAGGAGAUGGACTT against Sart1 | inactive: -2.47 |
| GGUGCUAAAUAAGACAAUGTT against Psma4 | inactive: -3.28 |
| GGUGUCCAGUUCAUCCAGGTT against 3110035E14Rik | inactive: -1.03 |
| GGUACAUAUUACAUUCUUCTT against Cldn12 | inactive: 1.18 |
| GCUAACCAGUGAUCCUACATT against Olfr846 | inactive: -0.638 |
| CCAUGAUCAAGAUUGUGCUTT against Slc29a1 | inactive: -0.707 |
| GGAUCUUUACAUCUCUAACTT against 4733401H21Rik | inactive: 0.355 |
| CACCGAGUAUAUCUAUAAUTT against Ear14 | inactive: -0.941 |
| GGUCAAAGUUAUGCAAUGUTT against Rp9h | inactive: -0.432 |
| GGAGAACUGAAAGACGUGCTT against Vgll1 | inactive: 1.23 |
| CGCAUACAUCAGGUCACUATT against Katnb1 | inactive: 0.57 |
| GGAUAAAAAGGAUAAGAGCTT against 1700011K15Rik | inactive: -0.315 |
| GGUAAAAUAUAGUUUGCGCTT against Abca14 | inactive: 0.305 |
| GGAAGACCAGCAGUUAAGATT against Grb10 | inactive: 0.15 |
| GGACUGAAUCUUUAAAGGUTT against Nkx1-2 | inactive: 1.09 |

Some of the entries so far, with bars between the fields:
Sequence | z-score
GGUACAUAUUACAUUCUUCTT against Cldn12 | inactive: 1.18
GCUAACCAGUGAUCCUACATT against Olfr846 | inactive: -0.638
CCAUGAUCAAGAUUGUGCUTT against Slc29a1 | inactive: -0.707

Reference: PubChem BioAssay AID1347423 (Functional Genomics Laboratory (NCATS/FGL), 2020)
